These results are taken from PubChem BioAssay AID2685 (National Center for Advancing Translational Sciences (NCATS), 2010).

A short description of the assay: qHTS Assay for Lipid Storage Modulators in Drosophila S3 Cells.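 On cell number change: cells counted by Cell Tracker Red CMTPX staining in the red channel.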 To be noted: BODIPY lipid droplet fluorescence, 18-24 h; for cell number change: measured here: cell count max response, cells fed with added oleic acid. The gist of the method:
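Drosophila S3 cells got compounds at several concentrations plus oleic acid (400 uM solution). Laser-scanning cytometry with 488 nm excitation read lipid droplets at 500-530 nm and cells at 575-640 nm. Percent activity was relative to 20 uM Triacsin C.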

The mark [1] stands for this setting: measured here: lipid fluorescence (Fed channel) AC50, cells fed with added oleic acid.
Where [2] appears, read: measured here: cell number channel AC50, cells fed with added oleic acid.

SMILES strings stand for the structures. The list shows a part of the results. These are further read-outs of the screen, such as a control signal, another cell line or another target. No call is given for them. Compounds called inactive in the main read-out are mostly missing here. Potencies come from curve fits of mixed quality, noted in brackets.

A word on the AC50: it is the concentration giving half of the maximal activity seen. Higher therefore signals activity only at high concentration. As for `CCOC(=O)c1c(CC(C)C)csc1/N=C/C1=C(O)CCCC1=O`, the cell number change was -27.8%. In addition, the AC50 under setting [1] was 29.1 µM [falling, single point].

Take `Cc1cccc(NC(=O)CSc2nnc(NC(=O)c3ccc(S(=O)(=O)N4CCOCC4)cc3)s2)c1C`: the cell number change was -2.12%. Moreover, under setting [1], the AC50 was 29.1 µM [rising, single point].

With `COc1cccc(N2CCN(C(=S)Nc3ccccc3OC)CC2)c1`, the cell number change was determined as 26.3%. Under setting [1], the AC50 is 0.13 µM [rising, full curve, poor fit].

In the case of `COc1ccccc1N1CCN(C(=O)C2CCN(C(=O)c3ccc(C(C)(C)C)cc3)CC2)CC1`, the cell number change came out at 3.66%. Moreover, the AC50 under setting [2] is 2.91 µM [rising, single point].

Regarding `Cc1cc(C)cc(NS(=O)(=O)c2ccc(NC(=S)NC(=O)c3ccc(Br)o3)cc2)c1`, the cell number change was -16.5%. The AC50 under setting [2] was 0.231 µM [rising, full curve, poor fit].

As for `COc1ccccc1OCC(=O)N(Cc1nc(-c2ccccc2)no1)C1CCCCC1`, the cell number change was -0.539%.

With `Cc1cc(-c2nnc(SCC(=O)Nc3nc(-c4ccc(Cl)cc4)cs3)o2)no1`, the cell number change was -29.9%. In addition, under setting [1], the AC50 was 20.6 µM [falling, single point].

Take `O=S(=O)(NCc1ccccc1)c1cccc2nonc12`: the cell number change is -3.78%. Besides, the AC50 under setting [2] was 6.51 µM [falling, single point]. For the same compound, the half-maximal activity concentration (AC50) under setting [1] was 0.146 µM [falling, full curve, poor fit].

On to `COc1cc(O)c(CC=C(C)C)c(O)c1C(=O)CCc1ccc(O)cc1`, for which the cell number change was -67%. For the same compound, the AC50 under setting [2] was 20.6 µM [falling, single point]. Further, under setting [1], the concentration at half-maximal activity (AC50) was 20.6 µM [falling, single point].

With `O=C(Nc1ccc2c(c1)OCO2)c1ccc[n+]([O-])c1`, the cell number change is 45.4%. Moreover, under setting [2], the half-maximal activity concentration (AC50) is 4.11 µM [rising, full curve].

In the case of `CN1CCN(c2nc(-c3ccccc3)nc3c2oc2ccccc23)CC1`, the cell number change amounted to 23.2%. In addition, the AC50 under setting [1] is 7.31 µM [rising, partial curve, poor fit].

Take `CCNC(=S)N(Cc1cccs1)Cc1cc2cc(OCC)ccc2[nH]c1=O`: the cell number change was -3.81%. In addition, under setting [1], the concentration at half-maximal activity (AC50) is 1.16 µM [falling, single point].

Turning to `COC(=O)C1=CN(c2cccc(Cl)c2)C=C(C(=O)OC)C1c1cccc(OC)c1`, the cell number change stood at 33.4%. Besides, the concentration at half-maximal activity (AC50) under setting [2] was 16.4 µM [rising, single point]. In addition, the concentration at half-maximal activity (AC50) under setting [1] was 29.1 µM [rising, single point].

Consider `CC(C)OC(=O)CSc1nnc2c3ccccc3n(C)c2n1`, for which the cell number change is 4.77%. The concentration at half-maximal activity (AC50) under setting [2] is 0.103 µM [falling, full curve, poor fit]. In addition, under setting [1], the half-maximal activity concentration (AC50) was 0.366 µM [falling, full curve].

Consider `CCC1(C)Cc2ccccc2-c2c1c(=O)n(-c1ccc(C)cc1)c1nnnn21` (stereo not drawn), for which the cell number change came to 20.7%. In addition, the AC50 under setting [1] is 20.6 µM [falling, single point].
